# From PubChem BioAssay AID2685 (National Center for Advancing Translational Sciences (NCATS), 2010)
# The list shows a part of the results. These are further read-outs of the screen, such as a control signal, another cell line or another target. No call is given for them. Most of these compounds were active or inconclusive in the main read-out, so they are no random draw. Words in brackets tell the shape of the fitted curve; partial curves, single points and poor fits give uncertain potencies.
# Assay: qHTS Assay for Lipid Storage Modulators in Drosophila S3 Cells;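 as to cell number change: cells counted by Cell Tracker Red CMTPX staining in the red channel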
# Conditions: BODIPY lipid droplet fluorescence, 18-24 h; for cell number change: measured here: cell count max response, cells fed with added oleic acid
# How it was run: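 Laser-scanning cytometry quantifies lipid droplet accumulation (500–530 nm total intensity; droplet/cell object ratio) in oleic acid-fed (400 uM added) Drosophila S3 cells treated with a concentration series. 20 uM Triacsin C defined 100% inhibition.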
# [1] = measured here: lipid fluorescence (Fed channel) AC50, cells fed with added oleic acid
# [2] = measured here: cell number channel AC50, cells fed with added oleic acid
compound,measurement,setting,value
Cc1cc(NC(=O)CSc2nnc(COc3cccc(C)c3C)n2C)no1,cell number change,,2.33%
same,AC50,[1],"20.6 µM [falling, partial curve, poor fit]"
O=C(COc1ccc2ccccc2c1)Nc1ccncc1,cell number change,,-17.1%
same,AC50,[1],"32.6 µM [falling, single point]"
COc1cccc(/C=N/n2c(C)nc3ccccc32)c1OC,AC50,[2],"0.731 µM [rising, single point]"
Cc1c(C(=O)N2CCC(N3CCSCC3)CC2)oc2c(F)cccc12,cell number change,,43.6%
same,AC50,[2],"10.3 µM [rising, partial curve, poor fit]"
CCOC(=O)c1sc(-c2ccccc2)cc1NC(=O)Nc1ccccc1,cell number change,,-13.8%
same,AC50,[1],"18.4 µM [falling, single point]"
O=S(=O)(/N=C(/Sc1ccccc1)c1ccccc1)c1ccccc1,AC50,[1],"6.51 µM [falling, single point]"
CC1Oc2ccccc2C=C1/C=C1/SC(N2CCOCC2)=NC1=O (centres undefined),cell number change,,12.5%
COCCN1CCN(C(=O)c2cc(COc3ccc(F)c(F)c3)on2)CC1,cell number change,,-0.867%
O=C(COC(=O)c1cccc(F)c1)NC1CC1,AC50,[2],"0.184 µM [falling, full curve, poor fit]"
O=C(CN1CCN(CCC(=O)Nc2ccccc2F)CC1)Nc1ccc(F)cc1,cell number change,,12.3%
Cc1cc(C)nc(Nc2ncc(O)n2-c2ccc(C)c(C)c2)n1,cell number change,,1.44%
same,AC50,[2],"0.291 µM [rising, single point]"
Cn1cccc1C(=O)NCC(c1ccc(F)cc1)N1CCOCC1 (centres undefined),cell number change,,7.65%
O=C(CN1CSCC1=O)N1CCN(S(=O)(=O)c2ccc(Cl)cc2)CC1,cell number change,,-9.02%
CC(=O)c1ccc(NC(=O)Nc2ccc(Br)cc2C)cc1,cell number change,,-41.4%
same,AC50,[2],"32.6 µM [falling, single point]"
same,AC50,[1],"29.1 µM [falling, single point]"
COC1CCCCC1Nc1cc(C)ccc1C (centres undefined),AC50,[1],"0.82 µM [falling, full curve, poor fit]"
CCCN(CC(=O)Nc1ccccc1C)C(=O)c1cccc(S(=O)(=O)N2CCc3ccccc3C2)c1,cell number change,,-4.04%
same,AC50,[1],"18.4 µM [rising, single point]"
c1ccc(-c2cnc(CSc3ncnc4sccc34)o2)cc1,cell number change,,-30.3%
same,AC50,[2],"8.2 µM [falling, partial curve]"
CNC(=O)NCCN1CCCC1=O,cell number change,,1.83%
same,AC50,[1],"18.4 µM [falling, single point]"
Cc1nc(-c2ccc(F)cc2)c(CC(=O)NCC(=O)Nc2ccc(F)c(F)c2)s1,cell number change,,9.37%
same,AC50,[1],"16.4 µM [rising, partial curve]"
C=COCCn1c(-c2nonc2N)nc2ccccc21,cell number change,,10.1%
same,AC50,[1],"13 µM [rising, single point]"
CC(C)(C)c1ccc(OCC(=O)NNC(=O)Nc2ccccc2)cc1,cell number change,,3.57%
O=C(NCCc1ccccc1)C1c2ccccc2C(=O)N1Cc1cccs1 (centres undefined),cell number change,,-15.8%
O=[N+]([O-])c1ccc2oc(C(O)c3cccc(Cl)c3)cc2c1 (centres undefined),cell number change,,-38.3%
same,AC50,[2],"29.1 µM [falling, single point]"
same,AC50,[1],"29.1 µM [falling, single point]"
O=C(CCc1c[nH]c2ccccc12)N=Nc1c(O)[nH]c2ccccc12,AC50,[1],"6.51 µM [rising, full curve, poor fit]"
O=C(c1noc2c1CCCC2)N1CCCCC1,cell number change,,6.29%
same,AC50,[1],"20.6 µM [falling, single point]"
CSCCC(N=CC1=C(O)CC(C)(C)CC1=O)C(=O)O (centres undefined),cell number change,,-25.4%
same,AC50,[2],"0.146 µM [falling, full curve, poor fit]"
same,AC50,[1],"29.1 µM [falling, single point]"
O=C(OCCN1C(=O)c2ccccc2C1=O)c1cc(=O)[nH]c2ccccc12,cell number change,,-16.6%
O=C(NN1CCOCC1)c1cnn2c(C(F)F)cc(-c3ccccc3)nc12,cell number change,,17.4%
same,AC50,[1],"0.206 µM [rising, single point]"
CCC1(C)Cc2nc3[nH]c(=S)n(-c4ccccc4C)c(=O)c3cc2CO1 (centres undefined),cell number change,,-17.1%
same,AC50,[1],"1.16 µM [falling, partial curve, poor fit]"
O=C(NC1(c2ccccc2)CC1)C1CCC(=O)N(Cc2ccc(Cl)cc2)C1 (centres undefined),cell number change,,5.66%
CCN(CC)c1ccc(C(=O)NNC(=O)CCl)cc1,cell number change,,-18.2%
same,AC50,[1],"13 µM [falling, partial curve, poor fit]"
CCC(CC)N1CCN(CC2CC=CCC2)CC1 (centres undefined),cell number change,,-41.7%
CCN1CCN(C(=O)/C=C/c2ccc(OC)cc2)CC1,cell number change,,-8.01%
same,AC50,[1],"29.1 µM [rising, single point]"
COc1ccc(NC(=O)c2ccccc2NC(=O)CSc2ccc(C)cc2)cc1,cell number change,,-45.9%
same,AC50,[2],"29.1 µM [falling, single point]"
same,AC50,[1],"7.31 µM [falling, partial curve, poor fit]"
COC1=CC(=Cc2c(N)n3nc(CC(=O)N4CCOCC4)sc3nc2=O)C=C(OC)C1=O,cell number change,,-89.9%
same,AC50,[2],"29.1 µM [falling, partial curve]"
same,AC50,[1],"0.58 µM [falling, full curve]"
CC(C)c1ccc(/C=C(\NC(=O)c2ccccc2)C(=O)NCCCN2CCOCC2)cc1,cell number change,,6.9%
COc1ccc(-c2sc3cc4c(cc3c2C#CC2(O)CCCCC2)OCO4)cc1,cell number change,,-34.8%
same,AC50,[2],"5.8 µM [falling, single point]"
Cc1cccc(OCc2nc(-c3ccccn3)n[nH]2)c1,cell number change,,32.7%
same,AC50,[2],"29.1 µM [rising, single point]"
same,AC50,[1],"29.1 µM [rising, single point]"
CCOc1ccc(S(=O)(=O)NCC(=O)NC2CCCCC2)cc1,cell number change,,-14.5%
same,AC50,[1],"4.61 µM [rising, full curve]"
COc1ccc(NC(=O)C2CCCN(S(=O)(=O)c3cccc4cccnc34)C2)cc1OC (centres undefined),AC50,[1],"0.461 µM [rising, single point]"
Oc1ccc2ccccc2c1C1Nc2cccc3cccc(c23)N1,cell number change,,6.79%
same,AC50,[2],"0.13 µM [falling, full curve, poor fit]"
same,AC50,[1],"0.461 µM [falling, full curve, poor fit]"
Cc1cccc(OCc2nnc(SCC(=O)N(C(C)C)C(C)C)n2Cc2ccco2)c1C,cell number change,,-20.7%
same,AC50,[1],"0.103 µM [falling, partial curve]"

# Exported tab-delimited: part of the list above.
compound	measurement	setting	value
C=COCCn1c(-c2nonc2N)nc2ccccc21	cell number change		10.1%
same	AC50	[1]	13 µM [rising, single point]
